# Results taken from the supplement of paper PMC10849652.
# By UniProt entry, the sequences of proteins in these tests, tags left out. Where a name states a change or a piece, a line headed by the entry shows the natural chain unless it says otherwise.
# UniProt Q7Z4R8: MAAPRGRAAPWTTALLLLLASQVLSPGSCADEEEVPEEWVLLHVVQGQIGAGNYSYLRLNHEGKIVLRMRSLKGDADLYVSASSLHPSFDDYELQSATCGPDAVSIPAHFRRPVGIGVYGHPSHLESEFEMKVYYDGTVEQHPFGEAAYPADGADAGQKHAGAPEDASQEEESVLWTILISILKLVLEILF
# UniProt Q9GZU0: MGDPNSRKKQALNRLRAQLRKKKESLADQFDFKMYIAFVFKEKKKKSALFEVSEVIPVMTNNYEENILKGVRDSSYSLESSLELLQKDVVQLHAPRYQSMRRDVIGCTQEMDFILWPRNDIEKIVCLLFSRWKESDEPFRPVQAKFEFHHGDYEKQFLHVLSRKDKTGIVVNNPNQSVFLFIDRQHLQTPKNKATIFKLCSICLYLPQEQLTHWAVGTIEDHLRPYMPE
# UniProt P02748: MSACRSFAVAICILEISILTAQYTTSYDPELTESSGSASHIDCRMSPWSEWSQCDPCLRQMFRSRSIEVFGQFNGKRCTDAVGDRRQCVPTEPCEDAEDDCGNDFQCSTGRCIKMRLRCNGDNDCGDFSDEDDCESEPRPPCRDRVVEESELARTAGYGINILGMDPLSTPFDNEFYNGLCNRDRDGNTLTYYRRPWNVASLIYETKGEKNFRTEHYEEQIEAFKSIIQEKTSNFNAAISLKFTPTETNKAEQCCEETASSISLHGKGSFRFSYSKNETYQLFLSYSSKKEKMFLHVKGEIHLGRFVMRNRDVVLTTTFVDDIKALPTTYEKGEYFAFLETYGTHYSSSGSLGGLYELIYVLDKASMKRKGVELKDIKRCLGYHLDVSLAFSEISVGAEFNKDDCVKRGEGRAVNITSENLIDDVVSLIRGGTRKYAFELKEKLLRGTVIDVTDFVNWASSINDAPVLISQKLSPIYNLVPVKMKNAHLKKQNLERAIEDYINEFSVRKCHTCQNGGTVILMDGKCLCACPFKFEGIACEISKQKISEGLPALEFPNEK
# UniProt Q16581: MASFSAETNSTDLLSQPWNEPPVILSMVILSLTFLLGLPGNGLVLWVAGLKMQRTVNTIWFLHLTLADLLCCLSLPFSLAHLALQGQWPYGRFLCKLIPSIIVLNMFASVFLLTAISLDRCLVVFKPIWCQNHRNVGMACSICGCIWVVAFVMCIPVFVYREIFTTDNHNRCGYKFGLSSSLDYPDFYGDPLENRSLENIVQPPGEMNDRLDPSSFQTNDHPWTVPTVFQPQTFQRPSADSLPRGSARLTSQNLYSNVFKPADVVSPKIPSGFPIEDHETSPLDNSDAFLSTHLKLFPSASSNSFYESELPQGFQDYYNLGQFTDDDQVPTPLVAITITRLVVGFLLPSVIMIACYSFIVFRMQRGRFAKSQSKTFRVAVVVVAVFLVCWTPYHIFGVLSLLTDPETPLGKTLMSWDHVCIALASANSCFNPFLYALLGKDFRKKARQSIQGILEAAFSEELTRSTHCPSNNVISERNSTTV
# UniProt Q9BRJ6: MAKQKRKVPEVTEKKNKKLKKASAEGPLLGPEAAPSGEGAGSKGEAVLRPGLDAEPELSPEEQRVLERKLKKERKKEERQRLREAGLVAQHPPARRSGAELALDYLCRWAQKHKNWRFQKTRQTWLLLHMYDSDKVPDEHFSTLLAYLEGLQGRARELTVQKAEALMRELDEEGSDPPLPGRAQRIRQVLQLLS
# UniProt Q32NC0: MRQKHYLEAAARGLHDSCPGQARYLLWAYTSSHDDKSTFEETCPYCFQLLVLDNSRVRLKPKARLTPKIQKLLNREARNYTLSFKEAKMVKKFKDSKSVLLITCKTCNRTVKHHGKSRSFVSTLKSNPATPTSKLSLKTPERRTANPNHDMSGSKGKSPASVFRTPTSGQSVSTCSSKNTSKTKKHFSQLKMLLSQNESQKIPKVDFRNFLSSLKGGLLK
# UniProt Q504U0: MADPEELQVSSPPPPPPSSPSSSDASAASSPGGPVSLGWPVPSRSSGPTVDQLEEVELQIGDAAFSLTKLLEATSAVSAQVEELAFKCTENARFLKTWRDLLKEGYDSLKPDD
# UniProt P07451: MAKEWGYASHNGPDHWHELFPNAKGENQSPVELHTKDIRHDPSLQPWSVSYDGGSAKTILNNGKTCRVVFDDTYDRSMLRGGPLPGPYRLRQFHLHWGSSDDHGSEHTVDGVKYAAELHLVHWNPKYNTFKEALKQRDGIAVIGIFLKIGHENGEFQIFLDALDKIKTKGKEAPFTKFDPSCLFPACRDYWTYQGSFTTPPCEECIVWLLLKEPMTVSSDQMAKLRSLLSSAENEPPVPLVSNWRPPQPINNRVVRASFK
# UniProt Q8N5S9: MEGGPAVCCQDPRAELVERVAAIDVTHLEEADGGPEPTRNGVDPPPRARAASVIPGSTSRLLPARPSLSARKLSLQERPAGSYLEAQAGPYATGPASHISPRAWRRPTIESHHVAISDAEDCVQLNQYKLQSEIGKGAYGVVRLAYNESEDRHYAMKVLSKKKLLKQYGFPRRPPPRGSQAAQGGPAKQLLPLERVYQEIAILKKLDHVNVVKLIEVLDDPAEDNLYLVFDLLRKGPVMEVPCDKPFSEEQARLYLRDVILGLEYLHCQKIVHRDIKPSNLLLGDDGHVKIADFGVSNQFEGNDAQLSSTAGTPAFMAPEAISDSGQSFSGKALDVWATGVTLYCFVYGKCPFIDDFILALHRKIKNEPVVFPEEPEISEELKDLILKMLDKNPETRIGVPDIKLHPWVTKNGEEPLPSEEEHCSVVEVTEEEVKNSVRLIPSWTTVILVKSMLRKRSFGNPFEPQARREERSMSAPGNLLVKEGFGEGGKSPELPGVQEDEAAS
# UniProt Q9BX69: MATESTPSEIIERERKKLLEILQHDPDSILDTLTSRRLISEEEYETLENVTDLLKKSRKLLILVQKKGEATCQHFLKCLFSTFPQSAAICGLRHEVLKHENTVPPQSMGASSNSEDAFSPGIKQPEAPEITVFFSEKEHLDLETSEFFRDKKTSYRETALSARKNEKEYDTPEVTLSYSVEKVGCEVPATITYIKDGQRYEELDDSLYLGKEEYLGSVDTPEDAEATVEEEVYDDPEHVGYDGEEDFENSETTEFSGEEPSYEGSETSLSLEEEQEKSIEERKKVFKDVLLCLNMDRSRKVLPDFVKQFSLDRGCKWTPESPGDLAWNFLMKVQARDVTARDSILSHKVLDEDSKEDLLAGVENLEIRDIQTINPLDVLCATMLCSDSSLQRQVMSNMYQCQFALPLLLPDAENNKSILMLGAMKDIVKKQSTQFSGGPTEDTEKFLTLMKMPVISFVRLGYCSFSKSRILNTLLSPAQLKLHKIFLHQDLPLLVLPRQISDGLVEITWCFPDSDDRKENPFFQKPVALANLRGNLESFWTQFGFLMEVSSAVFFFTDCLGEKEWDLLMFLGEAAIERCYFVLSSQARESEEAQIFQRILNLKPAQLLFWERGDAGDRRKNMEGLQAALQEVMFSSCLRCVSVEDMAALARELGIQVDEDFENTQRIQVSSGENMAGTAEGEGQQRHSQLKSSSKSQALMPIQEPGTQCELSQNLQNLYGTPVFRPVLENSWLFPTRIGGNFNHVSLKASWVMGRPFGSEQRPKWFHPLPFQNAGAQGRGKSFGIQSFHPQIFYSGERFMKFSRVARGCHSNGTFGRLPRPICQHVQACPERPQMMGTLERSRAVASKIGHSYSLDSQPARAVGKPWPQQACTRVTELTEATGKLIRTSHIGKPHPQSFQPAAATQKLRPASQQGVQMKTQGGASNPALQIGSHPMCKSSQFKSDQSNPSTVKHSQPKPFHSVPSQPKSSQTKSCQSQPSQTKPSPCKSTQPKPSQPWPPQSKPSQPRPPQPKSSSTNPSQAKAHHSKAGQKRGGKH
# UniProt Q14012: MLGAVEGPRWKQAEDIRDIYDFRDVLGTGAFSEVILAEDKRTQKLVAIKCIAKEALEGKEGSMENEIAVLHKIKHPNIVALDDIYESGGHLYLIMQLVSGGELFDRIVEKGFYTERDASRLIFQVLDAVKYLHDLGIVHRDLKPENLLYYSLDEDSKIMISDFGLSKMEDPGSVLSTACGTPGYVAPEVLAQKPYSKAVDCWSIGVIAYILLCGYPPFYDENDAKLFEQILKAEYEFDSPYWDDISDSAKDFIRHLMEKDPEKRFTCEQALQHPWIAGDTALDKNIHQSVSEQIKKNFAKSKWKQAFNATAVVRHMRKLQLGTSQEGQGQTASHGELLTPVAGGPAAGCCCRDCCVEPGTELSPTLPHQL
# UniProt Q96HA4: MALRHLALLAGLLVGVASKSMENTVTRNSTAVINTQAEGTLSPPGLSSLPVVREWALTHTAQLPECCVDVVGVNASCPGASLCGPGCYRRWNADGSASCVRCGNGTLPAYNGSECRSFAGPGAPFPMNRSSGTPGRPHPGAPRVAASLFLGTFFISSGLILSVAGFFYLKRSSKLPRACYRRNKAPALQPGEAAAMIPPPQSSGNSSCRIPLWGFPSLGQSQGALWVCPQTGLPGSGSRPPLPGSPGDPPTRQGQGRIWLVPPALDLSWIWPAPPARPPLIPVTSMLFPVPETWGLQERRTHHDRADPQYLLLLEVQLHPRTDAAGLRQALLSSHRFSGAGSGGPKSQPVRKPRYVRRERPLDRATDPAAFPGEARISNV
# UniProt Q6PH81: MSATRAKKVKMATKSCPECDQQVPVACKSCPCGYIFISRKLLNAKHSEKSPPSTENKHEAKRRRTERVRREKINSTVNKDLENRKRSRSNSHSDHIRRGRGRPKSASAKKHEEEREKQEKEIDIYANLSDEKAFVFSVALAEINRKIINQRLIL
# UniProt Q96NL8: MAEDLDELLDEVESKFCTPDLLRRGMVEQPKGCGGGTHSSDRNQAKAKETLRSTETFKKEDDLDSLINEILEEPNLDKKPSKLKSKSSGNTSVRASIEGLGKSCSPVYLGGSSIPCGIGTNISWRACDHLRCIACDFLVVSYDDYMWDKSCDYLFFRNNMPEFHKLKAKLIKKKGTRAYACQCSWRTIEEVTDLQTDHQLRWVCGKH
# UniProt Q96GV9: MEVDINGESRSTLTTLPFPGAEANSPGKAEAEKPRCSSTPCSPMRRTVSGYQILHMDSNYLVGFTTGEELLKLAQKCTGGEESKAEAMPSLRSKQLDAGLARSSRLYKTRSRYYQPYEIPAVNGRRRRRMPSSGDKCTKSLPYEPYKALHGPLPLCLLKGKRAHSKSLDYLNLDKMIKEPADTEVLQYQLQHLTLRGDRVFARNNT
# UniProt O75808: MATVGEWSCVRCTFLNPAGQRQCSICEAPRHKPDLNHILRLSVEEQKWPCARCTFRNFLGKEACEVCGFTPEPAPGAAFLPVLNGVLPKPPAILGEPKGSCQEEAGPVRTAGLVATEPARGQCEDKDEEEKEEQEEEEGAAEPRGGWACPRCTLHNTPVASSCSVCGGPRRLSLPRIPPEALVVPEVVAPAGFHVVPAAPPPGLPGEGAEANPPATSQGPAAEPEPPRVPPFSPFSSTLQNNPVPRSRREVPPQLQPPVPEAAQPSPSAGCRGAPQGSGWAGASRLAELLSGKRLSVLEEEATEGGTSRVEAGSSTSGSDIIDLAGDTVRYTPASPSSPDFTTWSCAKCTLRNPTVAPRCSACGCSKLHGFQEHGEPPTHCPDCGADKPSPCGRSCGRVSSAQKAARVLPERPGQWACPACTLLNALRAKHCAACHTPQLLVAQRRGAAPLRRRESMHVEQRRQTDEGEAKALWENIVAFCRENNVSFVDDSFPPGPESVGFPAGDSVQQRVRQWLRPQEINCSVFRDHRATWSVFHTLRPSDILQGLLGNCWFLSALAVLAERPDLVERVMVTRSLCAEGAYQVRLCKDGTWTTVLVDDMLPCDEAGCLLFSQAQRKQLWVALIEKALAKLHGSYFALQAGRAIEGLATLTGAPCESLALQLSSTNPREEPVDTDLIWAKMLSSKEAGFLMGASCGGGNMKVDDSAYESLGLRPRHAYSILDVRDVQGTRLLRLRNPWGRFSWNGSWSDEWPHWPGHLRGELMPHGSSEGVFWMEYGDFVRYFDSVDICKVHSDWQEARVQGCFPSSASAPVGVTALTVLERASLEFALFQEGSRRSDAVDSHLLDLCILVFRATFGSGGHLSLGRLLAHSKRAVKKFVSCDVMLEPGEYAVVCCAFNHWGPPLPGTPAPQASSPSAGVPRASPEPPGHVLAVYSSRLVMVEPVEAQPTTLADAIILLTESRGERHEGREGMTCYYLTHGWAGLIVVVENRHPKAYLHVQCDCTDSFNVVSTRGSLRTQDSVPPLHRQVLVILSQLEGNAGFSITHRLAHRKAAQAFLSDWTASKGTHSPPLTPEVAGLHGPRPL
# UniProt Q9BWL3: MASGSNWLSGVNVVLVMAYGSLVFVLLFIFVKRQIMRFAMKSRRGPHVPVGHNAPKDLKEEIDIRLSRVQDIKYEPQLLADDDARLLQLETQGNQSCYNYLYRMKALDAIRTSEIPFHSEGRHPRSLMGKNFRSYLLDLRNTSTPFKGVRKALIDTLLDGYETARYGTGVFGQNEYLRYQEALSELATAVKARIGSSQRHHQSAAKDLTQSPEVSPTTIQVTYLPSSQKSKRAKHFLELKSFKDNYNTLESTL
# UniProt P27482, whole entry, looked up: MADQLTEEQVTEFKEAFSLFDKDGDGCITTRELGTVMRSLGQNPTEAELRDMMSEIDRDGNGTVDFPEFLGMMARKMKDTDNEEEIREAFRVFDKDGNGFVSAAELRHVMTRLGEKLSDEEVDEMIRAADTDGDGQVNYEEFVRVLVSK
# Some of the results follow. Residues, ends and D or L forms follow the SMILES beside them. *: point of attachment. Cbz = O=C(OCc1ccccc1)*
# What was measured:
# Test in all cases: log2 fold change, soluble protein after heating vs DMSO (PISA); higher = thermal stabilisation; K562 cells, 10 uM, 30 min; active = over 0.2 and 3.5 SD of the protein, either way, in both replicates (recomputed)
# IRAK-1-4 Inhibitor I = compound: C1COCCN1CCN2C3=CC=CC=C3N=C2NC(=O)C4=CC(=CC=C4)[N+](=O)[O-] [IRAK-1-4 Inhibitor I]
# Summary of the method: (§1)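 Quantification of soluble protein used TMTpro 16plex LC-MS/MS, with channel sums equalised. Samples were the supernatant after 21,000xg for 90 min of pooled aliquots from K562 cells (2×10^6 cells/mL) treated with 10 μM compound for 30 min, heated for 3 min over 48°C-58°C, and extracted in PBS with 0.5% NP-40 at 4°C. Values, from duplicates, describe thermal stability against control samples on a log2 fold-change scale.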
# ibrutinib = compound: C=CC(=O)N1CCC[C@@H](n2nc(-c3ccc(Oc4ccccc4)cc3)c3c(N)ncnc32)C1 [ibrutinib]
# Summary of the method: as §1
# ralimetinib = compound: CC(C)(C)Cn1c(N)nc2ccc(-c3[nH]c(C(C)(C)C)nc3-c3ccc(F)cc3)nc21 [ralimetinib]
# Summary of the method: as §1
# [1] = compound: CC(C)C1=C2N=C(C=C(N2N=C1)NCC3=CC=CC=C3)NCCCCCCN
# Summary of the method: as §1
# [2] = compound: CC(C)C[C@@H](C=O)NC(=O)[C@H](CC(C)C)NC(=O)[C@H](CC(C)C)NC(=O)OCc1ccccc1
# Summary of the method: as §1
# pinometostat = compound: CC(C)N(C[C@H]1O[C@@H](n2cnc3c(N)ncnc32)[C@H](O)[C@@H]1O)[C@H]1C[C@@H](CCc2nc3cc(C(C)(C)C)ccc3[nH]2)C1 [pinometostat]
# Summary of the method: as §1
# [3] = compound: CC1=C(C2=C(C=C1)C(=O)C3=CC=CC=C3N2CCCN)C
# Summary of the method: as §1
# [4] = compound: CC1=C(C=C(C=C1)NC(=O)C2=CC(=CC=C2)C(C)(C)C#N)NC3=CC4=C(C=C3)N=CN(C4=O)C
# Summary of the method: as §1
# [5] = compound: CC1=C(C=C(C=C1)NC(=O)C2=CC(=CC=C2)N(C)C)NC(=O)C3=CC=C(C=C3)O
# Summary of the method: as §1
# [6] = compound: CC1=CC=C(C=C1)SC2=C3C=C(SC3=CN=C2)C(=O)N
# Summary of the method: as §1
# [7] = compound: CC1=NC(=CC=C1)C2=C(N=C(N2)C(C)(C)C)C3=CC4=NC=CN=C4C=C3
# Summary of the method: as §1
# vemurafenib = compound: CCCS(=O)(=O)Nc1ccc(F)c(C(=O)c2c[nH]c3ncc(-c4ccc(Cl)cc4)cc23)c1F [vemurafenib]
# Summary of the method: as §1
# [8] = compound: CCCS(=O)(=O)Nc1ccc(F)c(C(=O)c2c[nH]c3ncc(Cl)cc23)c1F
# Summary of the method: as §1
# givinostat = compound: CCN(CC)Cc1ccc2cc(COC(=O)Nc3ccc(C(=O)NO)cc3)ccc2c1 [givinostat]
# Summary of the method: as §1
# barasertib = compound: CCN(CCCOc1ccc2c(Nc3cc(CC(=O)Nc4cccc(F)c4)[nH]n3)ncnc2c1)CCOP(=O)(O)O [barasertib]
# Summary of the method: as §1
# [9] = compound: CC(C)(O)CC(=O)NCCn1ccc2ncnc(Nc3ccc(Oc4cccc(C(F)(F)F)c4)c(Cl)c3)c21
# Summary of the method: as §1
# Nexturastat A = compound: CCCCN(Cc1ccc(C(=O)NO)cc1)C(=O)Nc1ccccc1 [Nexturastat A]
# Summary of the method: as §1
# [10] = compound: CCCc1cc(C)[nH]c(=O)c1CNC(=O)c1cc(-c2ccnc(N3CCN(C)CC3)c2)cc2c1cnn2C(C)C
# Summary of the method: as §1
# [11] = compound: CC(=O)c1cnc2ccc(-c3cc(Cl)c(O)c(Cl)c3)nc2c1N[C@H]1CC[C@H](CN(C)C)CC1
# Summary of the method: as §1
# [12] = compound: CC1=C(C(CC(=O)N1)C2=CC=C(C=C2)C(F)(F)F)C(=O)NC3=C(C=C4C(=C3)C=NN4)F
# Summary of the method: as §1
target,measurement,setting,value
C6orf120 (UniProt Q7Z4R8),log2 fold change,IRAK-1-4 Inhibitor I,inactive: 0.116
same,log2 fold change,ibrutinib,inactive: -0.003
same,log2 fold change,ralimetinib,inactive: 0.015
same,log2 fold change,[1],inactive: -0.19
same,log2 fold change,[2],inactive: -0.003
same,log2 fold change,pinometostat,inactive: -0.023
same,log2 fold change,[3],inactive: 0.002
same,log2 fold change,[4],inactive: -0.054
same,log2 fold change,[5],inactive: 0.045
same,log2 fold change,[6],inactive: 0.018
same,log2 fold change,[7],inactive: -0.094
same,log2 fold change,vemurafenib,inactive: -0.035
same,log2 fold change,[8],inactive: 0.069
same,log2 fold change,givinostat,inactive: -0.011
same,log2 fold change,barasertib,inactive: 0.017
C6orf62 (UniProt Q9GZU0),log2 fold change,[9],inactive: 0.146
same,log2 fold change,[1],inactive: 0.008
same,log2 fold change,Nexturastat A,inactive: 0.199
same,log2 fold change,givinostat,inactive: -0.027
C9 (UniProt P02748),log2 fold change,ralimetinib,inactive: 0.052
same,log2 fold change,[9],inactive: 0.279
same,log2 fold change,[2],inactive: 0.026
same,log2 fold change,[3],inactive: -0.277
same,log2 fold change,[5],inactive: 0.228
same,log2 fold change,Nexturastat A,inactive: -0.007
same,log2 fold change,[10],inactive: -0.104
CA1 (UniProt E5RIF9),log2 fold change,ibrutinib,inactive: 0.161
same,log2 fold change,[9],inactive: -0.052
same,log2 fold change,[3],inactive: -0.02
same,log2 fold change,Nexturastat A,inactive: -0.413
same,log2 fold change,vemurafenib,inactive: -0.383
same,log2 fold change,barasertib,inactive: -0.004
CAD (UniProt H7BZB3),log2 fold change,[11],inactive: -0.322
C3AR1 (UniProt Q16581),log2 fold change,ibrutinib,inactive: -0.476
same,log2 fold change,[12],inactive: 0.121
same,log2 fold change,barasertib,inactive: -0.328
C7orf50 (UniProt Q9BRJ6),log2 fold change,[11],inactive: 0.077
same,log2 fold change,ralimetinib,inactive: 0.185
same,log2 fold change,[2],inactive: 0.1
same,log2 fold change,[3],inactive: -0.085
same,log2 fold change,[5],inactive: -0.031
same,log2 fold change,vemurafenib,inactive: 0.012
C18orf21 (UniProt Q32NC0),log2 fold change,[10],inactive: 0.132
C17orf99 (UniProt Q6UX52),log2 fold change,[11],inactive: -0.086
same,log2 fold change,[9],inactive: -0.001
same,log2 fold change,[1],inactive: 0.046
same,log2 fold change,Nexturastat A,inactive: 0.331
same,log2 fold change,[10],inactive: -0.064
same,log2 fold change,givinostat,inactive: 0.073
CA2 (UniProt P00918),log2 fold change,ibrutinib,inactive: -0.151
same,log2 fold change,[11],inactive: -0.04
same,log2 fold change,[1],inactive: 0.175
same,log2 fold change,[12],inactive: -0.109
same,log2 fold change,[3],inactive: 0.027
same,log2 fold change,[6],inactive: -0.073
same,log2 fold change,vemurafenib,inactive: -0.028
same,log2 fold change,[8],inactive: -0.199
same,log2 fold change,[10],inactive: -0.028
same,log2 fold change,givinostat,inactive: 0.067
same,log2 fold change,barasertib,inactive: 0.051
C1orf112 (UniProt Q9NSG2),log2 fold change,[11],inactive: 0.005
same,log2 fold change,[3],inactive: 0.04
same,log2 fold change,[4],inactive: -0.082
same,log2 fold change,[6],inactive: 0.016
same,log2 fold change,vemurafenib,inactive: 0.168
same,log2 fold change,[8],inactive: -0.013
C4orf46 (UniProt Q504U0),log2 fold change,[12],inactive: -0.08
BTBD10 isoform 2 (UniProt Q9BSF8),log2 fold change,[11],inactive: -0.006
same,log2 fold change,[6],inactive: -0.255
same,log2 fold change,[8],inactive: -0.337
C9orf16 (UniProt Q9BUW7),log2 fold change,[12],inactive: 0.044
same,log2 fold change,[10],inactive: -0.007
CALM1 (UniProt G3V361),log2 fold change,[1],inactive: 0.083
same,log2 fold change,[4],inactive: -0.13
same,log2 fold change,givinostat,inactive: -0.084
C3orf86 (UniProt P0DN24),log2 fold change,[12],inactive: -0.255
same,log2 fold change,[10],inactive: -0.083
CA3 (UniProt P07451),log2 fold change,ralimetinib,inactive: -0.125
same,log2 fold change,[9],inactive: -0.055
same,log2 fold change,[2],inactive: 0.001
same,log2 fold change,[4],inactive: -0.189
same,log2 fold change,[5],inactive: 0.122
same,log2 fold change,Nexturastat A,inactive: 0.083
CAMKK1 isoform 2 (UniProt Q8N5S9),log2 fold change,[6],inactive: -0.031
same,log2 fold change,[8],inactive: 0.03
BTBD1 (UniProt Q9H0C5),log2 fold change,ralimetinib,inactive: -0.027
same,log2 fold change,[2],inactive: 0.225
same,log2 fold change,[5],inactive: -0.217
CARD6 (UniProt Q9BX69),log2 fold change,ralimetinib,inactive: 0.244
same,log2 fold change,[2],inactive: 0.243
same,log2 fold change,[5],inactive: 0.027
C5orf24 (UniProt Q7Z6I8),log2 fold change,[9],inactive: 0.155
same,log2 fold change,[12],inactive: 0.174
same,log2 fold change,[3],inactive: -0.099
same,log2 fold change,[6],inactive: -0.114
same,log2 fold change,Nexturastat A,inactive: -0.09
same,log2 fold change,vemurafenib,inactive: -0.224
same,log2 fold change,[8],inactive: -0.041
same,log2 fold change,[10],inactive: 0.087
CAMK1 (UniProt Q14012),log2 fold change,ibrutinib,inactive: -0.016
same,log2 fold change,ralimetinib,inactive: 0.024
same,log2 fold change,[2],inactive: -0.123
same,log2 fold change,[5],inactive: 0.365
same,log2 fold change,barasertib,inactive: 0.008
C1orf159 isoform 4 (UniProt Q96HA4),log2 fold change,ibrutinib,inactive: -0.071
same,log2 fold change,[4],inactive: -0.202
same,log2 fold change,vemurafenib,inactive: 0.004
same,log2 fold change,barasertib,inactive: 0.069
C16orf87 (UniProt Q6PH81),log2 fold change,ibrutinib,inactive: -0.035
same,log2 fold change,[9],inactive: 0.168
same,log2 fold change,[12],inactive: 0.056
same,log2 fold change,[4],inactive: -0.171
same,log2 fold change,Nexturastat A,inactive: -0.137
same,log2 fold change,vemurafenib,inactive: 0.016
same,log2 fold change,[10],inactive: -0.037
same,log2 fold change,barasertib,inactive: 0.104
C8orf37 (UniProt Q96NL8),log2 fold change,[9],inactive: 0.11
same,log2 fold change,[1],inactive: -0.021
same,log2 fold change,[3],inactive: 0.029
same,log2 fold change,Nexturastat A,inactive: -0.136
same,log2 fold change,givinostat,inactive: -0.052
C12orf60 (UniProt Q5U649),log2 fold change,ibrutinib,inactive: -0.264
same,log2 fold change,[9],inactive: -0.511
same,log2 fold change,[1],inactive: -0.289
same,log2 fold change,[3],inactive: 0
same,log2 fold change,[6],inactive: 0.012
same,log2 fold change,Nexturastat A,inactive: 0.165
same,log2 fold change,[8],inactive: 0.124
same,log2 fold change,givinostat,inactive: 0.192
same,log2 fold change,barasertib,inactive: 0.009
BSN (UniProt Q9UPA5),log2 fold change,[11],inactive: -0.031
same,log2 fold change,vemurafenib,inactive: 0.047
CABIN1 (UniProt Q9Y6J0),log2 fold change,[1],inactive: 0.23
same,log2 fold change,[10],inactive: -0.049
same,log2 fold change,givinostat,inactive: 0.064
CAPNS1 (UniProt U3KPR7),log2 fold change,[11],inactive: 0.118
same,log2 fold change,[1],inactive: 0.349
same,log2 fold change,givinostat,inactive: 0.082
C5orf30 (UniProt Q96GV9),log2 fold change,[11],active: -0.917
same,log2 fold change,[9],inactive: 0.059
same,log2 fold change,[3],inactive: -0.284
same,log2 fold change,[6],inactive: -0.126
same,log2 fold change,Nexturastat A,inactive: -0.186
same,log2 fold change,[8],inactive: 0.103
CAPN15 (UniProt O75808),log2 fold change,ibrutinib,inactive: -0.079
same,log2 fold change,[9],inactive: 0.058
same,log2 fold change,[1],inactive: -0.143
same,log2 fold change,[4],inactive: -0.049
same,log2 fold change,[6],inactive: -0.145
same,log2 fold change,Nexturastat A,inactive: -0.028
same,log2 fold change,[8],inactive: -0.082
same,log2 fold change,givinostat,inactive: 0.067
same,log2 fold change,barasertib,inactive: -0.436
C2orf76 (UniProt Q3KRA6),log2 fold change,ibrutinib,inactive: -0.045
same,log2 fold change,[11],inactive: 0.088
same,log2 fold change,[1],inactive: -0.114
same,log2 fold change,[3],inactive: 0.102
same,log2 fold change,[4],inactive: -0.064
same,log2 fold change,vemurafenib,inactive: 0.08
same,log2 fold change,[10],inactive: -0.112
same,log2 fold change,givinostat,inactive: -0.062
same,log2 fold change,barasertib,inactive: 0.055
C1orf43 (UniProt Q9BWL3),log2 fold change,[4],inactive: -0.196
CALML3 (UniProt P27482),log2 fold change,[11],inactive: -0.557
same,log2 fold change,[9],inactive: 0.206
same,log2 fold change,[3],inactive: 0.775
same,log2 fold change,[6],inactive: -0.139
same,log2 fold change,Nexturastat A,inactive: 0.022
same,log2 fold change,[8],inactive: -0.128
same,log2 fold change,[10],inactive: 0.121
C5orf34 (UniProt Q96MH7),log2 fold change,[10],inactive: -0.075

# Already shown: entries from further up.
target,measurement,setting,value
C5orf24 (UniProt Q7Z6I8),log2 fold change,vemurafenib,inactive: -0.224
same,log2 fold change,[8],inactive: -0.041
same,log2 fold change,[10],inactive: 0.087
CAMK1 (UniProt Q14012),log2 fold change,ibrutinib,inactive: -0.016
same,log2 fold change,ralimetinib,inactive: 0.024
same,log2 fold change,[2],inactive: -0.123
same,log2 fold change,[5],inactive: 0.365

# Part of the list above, with tabs.
target	measurement	setting	value
C6orf120 (UniProt Q7Z4R8)	log2 fold change	ralimetinib	inactive: 0.015
same	log2 fold change	[1]	inactive: -0.19
